Laboratory results published in the supplement of paper PMC4371806.
In all, about 1,600 compounds were measured (“plate-normalized OD600 growth (mean of duplicates)”: median about 0.31, lowest 2% from about 0.23 on). The list shows a part of the results.

System: Escherichia coli BW25113
Experiment: plate-normalized OD600 growth (mean of duplicates) (OD600 (normalized)); higher = more growth (less inhibition)
Settings: 10 µM
Method: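 E. coli BW25113 in LB (100 µl, 96-well, no shaking) was exposed to 10 µM of each compound (here the ChemBridge subset of a ~30,000-member library) and grown at 37°C for 24 h or 15°C for 48 h, in duplicate. Growth was read as OD600 and the duplicate ODs were normalized across screening plates to correct plate-to-plate variation.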

| SMILES | plate-normalized OD600 growth (temperature: 15°C, 48 h) | plate-normalized OD600 growth (temperature: 37°C, 24 h) |
| --- | --- | --- |
| Cc1ccc(NC(=O)C(C#N)=C2NC(C)(C)Cc3ccccc32)c(C)c1 | 0.249 | 0.613 |
| CN(C)CCN(Cc1ccccc1)Cc1cccc(Cl)c1 | 0.261 | 0.625 |
| COc1ccc(-c2csc(/C(C#N)=C/c3ccc(OC)c(OC)c3)n2)cc1 | 0.286 | 0.636 |
| COc1ccc(NS(=O)(=O)c2ccc3c(c2)OCCO3)cc1OC | 0.261 | 0.637 |
| OC(COCc1ccc2c(c1)OCO2)CN1CCCCC1 (stereo unspecified) | 0.261 | 0.656 |
| O=C1CCCc2c1nn(-c1ccccc1)[n+]2[O-] | 0.249 | 0.618 |
| Cn1c(=O)c2c(nc(N3CCN(c4ccc([N+](=O)[O-])cc4)CC3)n2C)n(C)c1=O | 0.261 | 0.616 |
| N#Cc1cc([N+](=O)[O-])cnc1SCC(=O)Nc1ccccc1 | 0.273 | 0.645 |
| CCSc1sc(CC)cc1C(N)=O | 0.239 | 0.621 |
| CC(C)N(C(=O)c1ccc(C(=O)Nc2ccc(Br)cc2)cc1)C(C)C | 0.252 | 0.65 |
| COc1cc(OC)c(C(=O)CCC(=O)O)cc1OC | 0.252 | 0.663 |
| Cc1c(CN2CC3(C)CC2CC(C)(C)C3)c(=O)n(-c2ccccc2)n1C (stereo unspecified) | 0.241 | 0.611 |
| Cc1cc(C)cc(OCC(O)CN2CCCCC2)c1 (stereo unspecified) | 0.259 | 0.636 |
| CC(C)C(=O)N1CCN(c2ccc(F)cc2)CC1 | 0.249 | 0.599 |
| N#CC1=C(N)OC2=C(C(=O)CC(c3ccccc3)C2)C1c1c[nH]c2ccccc12 (stereo unspecified) | 0.274 | 0.641 |
| Cc1ccc(-c2csc(C(C#N)=CC=Cc3ccc([N+](=O)[O-])cc3)n2)c(C)c1 | 0.248 | 0.598 |
| COc1ccc(C2C(=C(O)c3ccc(C)cc3)C(=O)C(=O)N2CCN2CCOCC2)cc1 (stereo unspecified) | 0.242 | 0.602 |
| O=C(Nc1ccccc1[N+](=O)[O-])c1cccc(S(=O)(=O)N2CCOCC2)c1 | 0.244 | 0.615 |
| CCOC(=O)Nc1ccc(Cl)cc1[N+](=O)[O-] | 0.254 | 0.603 |
| CC1=NN(c2cc(C)nc(-c3ccccc3O)n2)C(=O)C1 | 0.253 | 0.614 |
| Cc1ccccc1C(=O)Nc1ccc(Br)cc1 | 0.282 | 0.631 |
| c1ccc2[nH]c(SCCN3CCCC3)nc2c1 | 0.26 | 0.627 |
| O=[N+]([O-])c1ccc(N2CCCC2)cc1N1CCOCC1 | 0.259 | 0.647 |

| SMILES | plate-normalized OD600 growth (temperature: 15°C, 48 h) | plate-normalized OD600 growth (temperature: 37°C, 24 h) |
| --- | --- | --- |
| COc1ccc(-c2nc(-c3ccc(Cl)cc3)no2)cc1 | 0.247 | 0.616 |
| CC1CCc2sc(NC(=O)c3ccc(Br)o3)c(C#N)c2C1 (stereo unspecified) | 0.234 | 0.592 |
| CC(O)(CC(=O)O)C12CC3CC(CC(C3)C1)C2 (stereo unspecified) | 0.266 | 0.636 |
| CCC1CCc2c(sc(N)c2C#N)C1 (stereo unspecified) | 0.237 | 0.605 |
| CC(=O)c1c(-c2ccccc2)c2cc(Cl)ccc2[nH]c1=O | 0.228 | 0.618 |
| CCN(CC)CCOc1ccccc1Br | 0.233 | 0.621 |
| CSc1ccc(C2C(C#N)=C(N)Oc3nc(C)[nH]c(=O)c32)cc1 (stereo unspecified) | 0.252 | 0.6 |
| O=C(NN1CCOCC1)c1ccc(Cl)s1 | 0.243 | 0.622 |
| CCc1ccccc1NS(=O)(=O)c1ccc(F)cc1 | 0.21 | 0.618 |
| CC(NC(=O)COc1ccc([N+](=O)[O-])cc1)c1ccccc1 (stereo unspecified) | 0.252 | 0.612 |
| N#Cc1c(N)nc2c(c1-c1ccco1)CCCCCC2 | 0.249 | 0.615 |
| CCCN(CCO)Cc1cc(OC)c(OC)cc1Br | 0.263 | 0.609 |
| COc1ccc(-c2c(C)nn3c(C)cc(C)nc23)cc1 | 0.249 | 0.614 |
| NNC(=O)C(O)c1ccc(Cl)cc1 (stereo unspecified) | 0.272 | 0.623 |
| O=C(O)c1cc(S(=O)(=O)N2CCCC2)ccc1Br | 0.262 | 0.637 |
| O=C(O)C1CC(C(=O)O)C(C(=O)O)CC1C(=O)O (stereo unspecified) | 0.242 | 0.612 |
| CCCC(=O)N1CCN(c2cc(N3CCCCC3)c(F)cc2[N+](=O)[O-])CC1 | 0.254 | 0.631 |
| CN1CCC(N(C)Cc2ccc3c(c2)OCO3)CC1 | 0.257 | 0.646 |
| O=C(O)c1cc(NC(=O)c2cccc([N+](=O)[O-])c2)cc(C(=O)O)c1 | 0.254 | 0.609 |
| CCN(CC)C(=O)C1CCCN(Cc2ccc3c(c2)OCO3)C1 (stereo unspecified) | 0.254 | 0.622 |
| Cc1ccc(C(=O)/C=C/c2ccc(F)cc2)o1 | 0.25 | 0.63 |
| Oc1ccc(CN2CCN(c3ncccn3)CC2)cc1 | 0.244 | 0.631 |
| O=[N+]([O-])c1ccc(-c2nnc3ccc4ccccc4n23)cc1 | 0.239 | 0.625 |

20 consecutive compounds out of the list so far, quoted:

| SMILES | plate-normalized OD600 growth (temperature: 15°C, 48 h) | plate-normalized OD600 growth (temperature: 37°C, 24 h) |
| --- | --- | --- |
| CC(O)(CC(=O)O)C12CC3CC(CC(C3)C1)C2 (stereo unspecified) | 0.266 | 0.636 |
| CCC1CCc2c(sc(N)c2C#N)C1 (stereo unspecified) | 0.237 | 0.605 |
| CC(=O)c1c(-c2ccccc2)c2cc(Cl)ccc2[nH]c1=O | 0.228 | 0.618 |
| CCN(CC)CCOc1ccccc1Br | 0.233 | 0.621 |
| CSc1ccc(C2C(C#N)=C(N)Oc3nc(C)[nH]c(=O)c32)cc1 (stereo unspecified) | 0.252 | 0.6 |
| O=C(NN1CCOCC1)c1ccc(Cl)s1 | 0.243 | 0.622 |
| CCc1ccccc1NS(=O)(=O)c1ccc(F)cc1 | 0.21 | 0.618 |
| CC(NC(=O)COc1ccc([N+](=O)[O-])cc1)c1ccccc1 (stereo unspecified) | 0.252 | 0.612 |
| N#Cc1c(N)nc2c(c1-c1ccco1)CCCCCC2 | 0.249 | 0.615 |
| CCCN(CCO)Cc1cc(OC)c(OC)cc1Br | 0.263 | 0.609 |
| COc1ccc(-c2c(C)nn3c(C)cc(C)nc23)cc1 | 0.249 | 0.614 |
| NNC(=O)C(O)c1ccc(Cl)cc1 (stereo unspecified) | 0.272 | 0.623 |
| O=C(O)c1cc(S(=O)(=O)N2CCCC2)ccc1Br | 0.262 | 0.637 |
| O=C(O)C1CC(C(=O)O)C(C(=O)O)CC1C(=O)O (stereo unspecified) | 0.242 | 0.612 |
| CCCC(=O)N1CCN(c2cc(N3CCCCC3)c(F)cc2[N+](=O)[O-])CC1 | 0.254 | 0.631 |
| CN1CCC(N(C)Cc2ccc3c(c2)OCO3)CC1 | 0.257 | 0.646 |
| O=C(O)c1cc(NC(=O)c2cccc([N+](=O)[O-])c2)cc(C(=O)O)c1 | 0.254 | 0.609 |
| CCN(CC)C(=O)C1CCCN(Cc2ccc3c(c2)OCO3)C1 (stereo unspecified) | 0.254 | 0.622 |
| Cc1ccc(C(=O)/C=C/c2ccc(F)cc2)o1 | 0.25 | 0.63 |
| Oc1ccc(CN2CCN(c3ncccn3)CC2)cc1 | 0.244 | 0.631 |

Going on with the list.

| SMILES | plate-normalized OD600 growth (temperature: 15°C, 48 h) | plate-normalized OD600 growth (temperature: 37°C, 24 h) |
| --- | --- | --- |
| O=C(Nc1ccncc1)c1ccc(Cl)cc1Cl | 0.263 | 0.623 |
| OC(COc1ccc(C23CC4CC(CC(C4)C2)C3)cc1)CN1CCOCC1 (stereo unspecified) | 0.243 | 0.592 |
| O=C(Nc1ccccc1NC(=O)c1ccccc1F)c1ccccc1F | 0.263 | 0.627 |
| C/C=C(\C)CN1CCN(c2ccc(C(C)=O)cc2)CC1 | 0.237 | 0.587 |
| Cc1nc2c(c(=O)[nH]1)C(c1cccnc1)C(C#N)=C(N)O2 (stereo unspecified) | 0.245 | 0.622 |
| Cc1ccc(C)c(OCCCCn2ccnc2)c1 | 0.235 | 0.596 |
| O=C(O)CCCC(=O)Nc1cccc([N+](=O)[O-])c1 | 0.236 | 0.626 |
| COc1ccc(NC(=O)Nc2ccc(F)c(Cl)c2)cc1 | 0.283 | 0.58 |
| O=[N+]([O-])c1ccc(/C=C/c2ccc3ccccc3n2)s1 | 0.235 | 0.619 |
| Cc1noc(C)c1Cc1c(C)noc1C | 0.263 | 0.639 |
| Cn1c(-c2ccccc2)nc2cnccc21 | 0.266 | 0.648 |
| COc1ccc(C(=O)Nc2ccc(OC)cc2OC)cc1 | 0.258 | 0.652 |
| CC(C)(C)NC(=O)c1ccccc1C(=O)NC(C)(C)C | 0.263 | 0.63 |
| CC(C)(C)N(Cc1ccccc1)C(=O)c1ccco1 | 0.251 | 0.62 |
| CC(=O)c1c(C)[nH]n(-c2ccccc2)c1=O | 0.252 | 0.618 |
| N#CC(=Cc1ccc(N2CCOCC2)cc1)c1nc2ccccc2[nH]1 | 0.252 | 0.599 |
| CN(C)c1ccc(-c2nc3ccccc3o2)cc1 | 0.252 | 0.615 |
| c1ccc(OCCCCN2CCCCC2)cc1 | 0.241 | 0.621 |
| OCCN1CCN(C/C=C/c2ccccc2)CC1 | 0.257 | 0.614 |
| O=C1CC(NCCc2ccccc2)C(=O)N1c1cccc(Cl)c1 (stereo unspecified) | 0.255 | 0.624 |
| O=C(COc1ccc(Cl)cc1Cl)NC1CCCC1 | 0.252 | 0.616 |
| N#C/C(C(=O)c1ccccc1)=C1/CCCCCN1 | 0.252 | 0.604 |
